Measured values reported in US20110184188A1, “Insecticidal Benzenedicarboxamide Derivative” (priority 2008, published 2011).
Some entries share one result that the patent states for a list of compounds. At least one compound was matched to its structure with a doubt left.

Columns and labels:
Type in all cases: in vivo
[1] = system: Myzus persicae resistant to organophosphorus pesticide and carbamate agent; assay: Test to Myzus persicae resistant to organophosphorus pesticide and carbamate agent (egg plant seedlings); conditions: effective ingredient concentration 100 ppm, seven days after spraying
Procedure: Test to Myzus persicae resistant to organophosphorus pesticide and carbamate agent
(§1) Solvent: dimethylformamide 3 parts by weight Emulsifier: polyoxyethylene alkyl phenyl ether 1 part by weight
(§2) In order to prepare preparations of suitable active compounds, 1 part by weight of each of the active compounds was blended with the above amount of the solvent containing the above amount of the emulsifier, and the resulting mixture was diluted to a prescribed concentration with water.
On egg plant seedlings planted in a plastic pot of a diameter of 6 cm, 30 bred Myzus persicae resistant to organophosphorus pesticide and carbamate agent per one seedling were inoculated. After 1 day elapsed since the inoculation, a sufficient amount of the solution diluted with water and having a prescribed concentration of the active compound was sprayed. After the spraying, the pot was allowed to stand in a greenhouse of 28° C. After seven days elapsed since the spraying, insect mortality was calculated. The test was carried out twice.

[2] = system: Spodoptera litura third instar larvae; assay: Test to larva of Spodoptera litura (sweet potato leaf dip); conditions: active ingredient concentration 20 ppm, seven days later, 25° C.
Procedure: Test to Larva of Spodoptera litura
as §1, §2
Leaves of sweet potato were immersed in the tested liquid medication of a prescribed concentration diluted with water. After air drying of the liquid medication, the leaves were put into a petri dish of a diameter of 9 cm, and 10 Spodoptera litura third instar larvae were released in the petri dish, and the petri dish was placed in a constant temperature room of 25° C. Two days later and four days later, leaves of sweet potato were added. Seven days later, the number of dead insects was examined, and insect mortality was calculated.
In the present test, results of 2 petri dishes for each compound were averaged.

Myzus persicae = assay: Test to Myzus persicae (Brassica pekinensis leaf disc spray); conditions: spraying amount 100 g/ha
Procedure: Solvent: acetone 78.0 parts by weight and dimethylformamide 1.5 parts by weight Emulsifier: alkyl aryl polyglycol ether 0.5 parts by weight
as §2
On a leaf disc of Brassica pekinensis, Myzus persicae including all growth stage was inoculated. The solution diluted with water and having a prescribed concentration of the active compound was sprayed by a spray gun. Insect mortality was calculated after prescribed days elapsed. 100% insect mortality means that all the individuals died, and 0% insect mortality means that all the individuals were alive.

| Compound | pesticide effect, insect mortality [1] [%] | insect mortality [2] [%] | pesticide effect, insect mortality (Myzus persicae) [%] |
| --- | --- | --- | --- |
| CSCC(C)NC(=O)c1c(Cl)cccc1C(=O)Nc1ccc(Cn2nc(C(F)(F)Cl)nc2C(F)(F)Cl)cc1C (centres unmarked) [14-97] | 100 |  |  |
| CSc1cccc(C(=O)Nc2ccc(Cn3nc(C(F)(F)F)cc3C(F)(F)F)cc2C)c1C(=O)NC(C)C[S+](C)[O-] (mixture of isomers) [13-298] | 100 | 100 |  |
| CSC[C@H](C)NC(=O)c1c(Cl)cccc1C(=O)Nc1ccc(Cn2nc(C(F)(F)F)nc2C(F)(F)F)cc1F [14-337] | 100 |  |  |
| CSC[C@H](C)NC(=O)c1c(C(=O)Nc2ccc(CN3N=C(C(F)(F)C(F)(F)F)NC3C(F)(F)F)cc2C)cccc1S(C)(=O)=O (some centres unmarked) [16-14] | 100 | 100 |  |
| CC[S+]([O-])CC(C)(C)NC(=O)c1c(I)cccc1C(=O)Nc1ccc(Cn2nc(C(F)(F)F)nc2C(F)(F)F)cc1C (centres unmarked) [14-220] | 100 | 100 |  |
| CSC[C@H](C)NC(=O)c1c(Cl)cccc1C(=O)Nc1ccc(Cn2nc(C(F)(F)C(F)(F)F)nc2C(F)(F)C(F)(F)F)cc1 [8-15] | 100 | 100 |  |
| CSC[C@H](C)NC(=O)c1c(I)cccc1C(=O)Nc1c(Br)cc(Cn2nc(C(F)(F)F)nc2C(F)(F)F)cc1Br [5-23] | 100 |  | ≥ 70 |
| CSC[C@H](C)NC(=O)c1c(Cl)cccc1C(=O)Nc1ccc(Cc2nc(C(F)(F)C(F)(F)F)nn2C(F)F)cc1C [14-148] | 100 | 100 |  |
| CSC[C@H](C)NC(=O)c1c(SC)cccc1C(=O)Nc1ccc(Cn2nc(C(F)(F)C(F)(F)F)cc2C(F)(F)F)cc1C [13-310] | 100 | 100 |  |
| CSCC(C)NC(=O)c1c(I)cccc1C(=O)Nc1ccc(Cn2nc(C(F)(F)F)nc2C(F)(F)Cl)cc1C (centres unmarked) [14-198] | 100 | 100 |  |
| CSc1cccc(C(=O)Nc2ccc(Cn3nc(C(F)(F)F)nc3C(F)(F)F)cc2C)c1C(=O)N[C@@H](C)C[S+](C)[O-] (some centres unmarked) [14-371] | 100 |  |  |
| CCS(=O)(=O)c1cccc(C(=O)Nc2ccc(Cn3nc(C(F)(F)F)cc3C(F)(F)F)cc2C)c1C(=O)N[C@@H](C)CSC [13-346] | 100 |  |  |
| CSC[C@H](C)NC(=O)c1c(SC)cccc1C(=O)Nc1ccc(Cn2cc(I)c(C(F)(F)C(F)(F)F)n2)cc1C [13-303] | 100 |  |  |
| Cc1cc(Cn2nc(C(F)(F)C(F)(F)F)nc2C(F)(F)F)ccc1NC(=O)c1ccccc1C(=O)N[C@@H](C)C[S+](C)[O-] (some centres unmarked) [14-346] | 100 | 100 |  |
| CSC[C@H](C)NC(=O)c1c(C(=O)Nc2ccc(Cn3nc(C(F)(F)F)nc3C(F)(F)F)cc2C)cccc1S(C)(=O)=O [14-372] | 100 |  | ≥ 70 |
| CSC[C@H](C)NC(=O)c1c(C(=O)Nc2ccc(Cn3nc(C(F)(F)C(F)(F)F)cc3C(F)(F)F)cc2C)cccc1S(C)(=O)=O [13-311] | 100 | 100 |  |
| CSC[C@H](C)NC(=O)c1c(Cl)cccc1C(=O)Nc1ccc(Cn2nc(C(F)(F)F)nc2C(F)(F)F)c(F)c1Cl [6-65] | 100 | 100 |  |
| CSC[C@H](C)NC(=O)c1c(SCC(F)(F)F)cccc1C(=O)Nc1ccc(Cn2nc(C(F)(F)F)nc2C(F)(F)F)cc1C [14-409] | 100 |  |  |
| CSC[C@H](C)NC(=O)c1c(SC)cccc1C(=O)Nc1ccc(Cc2nc(C(F)(F)C(F)(F)F)n(C(F)F)n2)cc1C [14-385] | 100 |  |  |
| CSC[C@H](C)NC(=O)c1c(SC)cccc1C(=O)Nc1ccc(Cn2nc(C(F)(F)F)nc2C(F)(F)F)c(F)c1C [6-30] | 100 |  |  |
| CSC[C@H](C)NC(=O)c1c(SC)cccc1C(=O)Nc1ccc(Cn2nc(C(F)(F)F)nc2C(F)(F)F)cc1C [14-370] | 100 |  | ≥ 70 |
| CSC[C@H](C)NC(=O)c1c(Cl)cccc1C(=O)Nc1c(Br)cc(Cn2nc(C(F)(F)F)nc2C(F)(F)F)cc1Br [5-15] | 100 |  | ≥ 70 |
| CSC[C@H](C)NC(=O)c1c(Cl)cccc1C(=O)Nc1ccc(Cn2nc(C(F)(F)F)nc2C(F)(F)F)c(F)c1C [6-14] | 100 | 100 |  |

| Compound | pesticide effect, insect mortality [1] [%] | insect mortality [2] [%] | pesticide effect, insect mortality (Myzus persicae) [%] |
| --- | --- | --- | --- |
| CSC[C@H](C)NC(=O)c1c(SC)cccc1C(=O)Nc1ccc(Cn2nc(F)c(C(F)(F)F)c2C(F)(F)C(F)(F)F)cc1C [13-307] | 100 | 100 |  |
| Cc1cc(Cn2nc(C(F)(F)F)cc2C(F)(F)F)ccc1NC(=O)c1cccc([S+](C)[O-])c1C(=O)NC(C)C[S+](C)[O-] (mixture of isomers) [13-297] | 100 |  |  |
| CSC[C@H](C)NC(=O)c1c(C(=O)Nc2ccc(Cn3nc(C(F)(F)F)nc3C(F)(F)F)c(F)c2C)cccc1S(C)(=O)=O [6-34] | 100 | 100 |  |
| C[C@@H](C[S+](C)[O-])NC(=O)c1c(Cl)cccc1C(=O)Nc1ccc(Cn2nc(C(F)(F)C(F)(F)F)nc2C(F)(F)F)cc1Cl (some centres unmarked) [14-167] | 100 | 100 |  |
| CSC[C@H](C)NC(=O)c1c(C(=O)Nc2ccc(Cn3nc(C(F)(F)F)nc3C(F)(F)F)cc2Cl)cccc1S(C)(=O)=O [14-411] | 100 |  |  |
| CSC[C@H](C)NC(=O)c1c(Cl)cccc1C(=O)Nc1c(C)cc(Cn2nc(C(F)(F)F)nc2C(F)(F)F)cc1Cl [5-22] | 100 |  |  |
| CSC[C@H](C)NC(=O)c1c(C(=O)Nc2ccc(C(C)n3nc(C(F)(F)F)cc3C(F)(F)F)cc2C)cccc1S(C)(=O)=O (some centres unmarked) [13-367] | 100 | 100 |  |
| C[C@@H](CS(C)(=O)=O)NC(=O)c1c(C(=O)Nc2ccc(Cn3nc(C(F)(F)F)nc3C(F)(F)F)cc2Cl)cccc1S(C)(=O)=O [14-413] | 100 |  |  |
| CSC[C@H](C)NC(=O)c1c(SC)cccc1C(=O)Nc1ccc(Cn2nc(C(F)(F)F)nc2C(F)(F)Cl)cc1C [14-376] | 100 |  |  |
| CCN(CC)S(=O)(=O)C[C@H](C)NC(=O)c1c(Cl)cccc1C(=O)Nc1ccc(Cn2nc(C(F)(F)F)cc2C(F)(F)F)cc1C [13-119] | 100 | 100 |  |
| Cc1cc(Cn2nc(C(F)(F)C(F)(F)F)nc2C(F)(F)F)ccc1NC(=O)c1cccc(S(C)(=O)=O)c1C(=O)N[C@@H](C)C[S+](C)[O-] (some centres unmarked) [14-392] | 100 |  |  |
| CSC[C@H](C)NC(=O)c1c(SC(F)(F)F)cccc1C(=O)Nc1ccc(Cn2nc(C(F)(F)F)nc2C(F)(F)F)cc1C [14-407] | 100 |  |  |
| CSC[C@H](C)NC(=O)c1c(SC)cccc1C(=O)Nc1ccc(Cc2nc(C(F)(F)C(F)(F)F)nn2C(F)F)cc1C [14-386] | 100 |  |  |
| CSC[C@H](C)NC(=O)c1c(Cl)cccc1C(=O)Nc1ccc(Cn2nc(C(F)(F)C(F)(F)F)nc2C(F)(F)F)cc1 [8-14] | 100 | 100 |  |
| Cc1c(NC(=O)c2cccc(Cl)c2C(=O)N[C@@H](C)CS(C)(=O)=O)ccc(Cn2nc(C(F)(F)F)nc2C(F)(F)F)c1F [6-16] | 100 | 100 |  |
| Cc1cc(Cn2nc(C(F)(F)F)nc2C(F)(F)F)ccc1NC(=O)c1cccc(S(C)(=O)=O)c1C(=O)N[C@@H](C)CS(C)(=O)=O [14-375] | 100 | 100 |  |
| CSC[C@H](C)NC(=O)c1c(SC)cccc1C(=O)Nc1ccc(CN2N=C(C(F)(F)C(F)(F)F)N(C(C)=O)C2C(F)(F)F)cc1C (some centres unmarked) [16-12] | 100 |  |  |
| CSC[C@H](C)NC(=O)c1c(Cl)cccc1C(=O)Nc1ccc(Cc2nc(C(F)(F)C(F)(F)F)n(C(F)F)n2)cc1C [14-152] | 100 | 100 |  |
| CSCC(C)NC(=O)c1c(SC)cccc1C(=O)Nc1ccc(C(C)n2nc(C(F)(F)F)cc2C(F)(F)F)cc1C (mixture of isomers) [13-302] | 100 | 100 |  |
| C=C=CSc1cccc(C(=O)Nc2ccc(Cn3nc(C(F)(F)F)nc3C(F)(F)F)cc2C)c1C(=O)N[C@@H](C)CSC [14-416] | 100 |  |  |
| CSC[C@H](C)NC(=O)c1c(Br)cccc1C(=O)Nc1ccc(Cn2nc(C(F)(F)F)nc2C(F)(F)F)c(F)c1C [6-20] | 100 | 100 |  |
| CSC[C@H](C)NC(=O)c1c(C(=O)Nc2ccc(Cc3nc(C(F)(F)C(F)(F)F)n(C(F)F)n3)cc2C)cccc1S(C)(=O)=O [14-388] | 100 |  |  |
